Source: patent US20220195049A1 (Scripps Research, published 2022)
Numbering of substitutions follows the chain as printed. These are yes or no findings as the source states them, for the method shown. Some results given as binding are weak or reduced against the parent protein; the word gives no strength. One block for each binder: values may come before it.

Protein sequences, listed by entry. Tags and fused reporters are not part of them. Residues count along the entry.
UniProt Q9NZQ7, residues 19-239: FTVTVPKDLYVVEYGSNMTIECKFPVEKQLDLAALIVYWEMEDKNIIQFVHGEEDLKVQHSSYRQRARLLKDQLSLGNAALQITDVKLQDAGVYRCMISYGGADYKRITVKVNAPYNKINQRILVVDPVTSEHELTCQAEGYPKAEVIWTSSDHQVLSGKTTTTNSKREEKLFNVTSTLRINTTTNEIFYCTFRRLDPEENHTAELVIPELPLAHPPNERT

Molecular target: PD-L1-Fc (PD-L1 antigen protein, extracellular region Met1-Thr239 fused to human Fc) (human) (UniProt Q9NZQ7)
Test: competitive ELISA on a PD-L1-coated plate, about 4 more hours in a solution of PD-L1 antigen protein

B1: KL001-01 (antibody, V domains shown)
VH: QVQLVESGAEVKKPGSSVKVSCKASGGTFSSYAISWVRQAPGQGLEWMGRIIPILGIANYAQKFQGRVTVTADKSTSTAYMELSSLRSEDTAVYYCAQSGYGYAYGSFDYWGQGTLVTVSS
VL: QLVLTQPPSVSGAPGQTVTISCTGPTIGAGYDVHWYQQLPGAAPKLLIYGNLNRPSGVPDRFSGSKSGTSASLAITDLQAEDEADYYCQSYDRTLGVVFGGGTKLTVL
- binding: binds

B3: KL001-05 (antibody, V domains shown)
VH: B1 VH with Q98R, Y110M
VL: B1 VL with R93S, T94R
- binding: binds

B5: KL001-16 (antibody, V domains shown)
VH: B1 VH with Q98R
VL: B1 VL with R93S, T94R
- binding: binds

B8: KL001-20 (antibody, V domains shown)
VH: B1 VH with L55M, Q98R
VL: B1 VL with R93S
- binding: binds

B9: KL001-09 (antibody, V domains shown)
VH: B1 VH with G56Q, Q98R
VL: B1 VL with T26P, R93S, L95P
- binding: binds

B14: KL001-02 (antibody, V domains shown)
VH: B1 VH with Q98R, Y101H
VL: B1 VL with A29Q, R93S, T94R
- binding: binds

B15: KL001-15 (antibody, V domains shown)
VH: B1 VH with Q98R
VL: B1 VL with G28Q, R93S, T94R
- binding: binds

B16: KL001-13 (antibody, human IgG1, kappa, V domains shown)
VH: B1 VH with Q98R
VL: QLVLTQPPSVSGAPGQTVTISCTGQTIGAGYDVHWYQQLPGAAPKLLIYGNLNRPSGVPDRFSGSKSGTSASLAITDLQAEDEADYYCQSYDSRLGVVFGGGTKLTVLR
notes: also called KL001-13 candidate antibody
- binding: binds

B18: KL001-22 (antibody, V domains shown)
VH: B1 VH with I52S, Q98R
VL: B1 VL with R93S
- binding: binds

B19: KL001-19 (antibody, V domains shown)
VH: B1 VH with Q98R
VL: B1 VL with R93S, L95V
- binding: binds

B22: KL001-26 (antibody, V domains shown)
VH: B1 VH with Q98R
VL: B1 VL with A29Q, R93S, T94R
- binding: binds

B24: KL001-21 (antibody, V domains shown)
VH: B1 VH with I54V, Q98R
VL: B1 VL with S90A, R93S
- binding: binds

B25: KL001-27 (antibody, V domains shown)
VH: B1 VH with Q98R
VL: B1 VL with P25Q, R93S, L95D
- binding: binds

B26: KL001-06 (antibody, V domains shown)
VH: B1 VH with Q98R, Y110V
VL: B1 VL with R93S, T94R
- binding: binds

B27: KL001-04 (antibody, V domains shown)
VH: B1 VH with Q98R, D109A, Y110A
VL: B1 VL with R93S
- binding: binds

More lines, now with the values ahead:

- binding: binds
B2: KL001-03 (antibody, V domains shown)
VH: B1 VH with Q98R, Y101P
VL: B1 VL with R93S, L95Q

- binding: binds
B4: KL001-25 (antibody, V domains shown)
VH: B1 VH with Q98R
VL: B1 VL with G24Q, Y91M, R93S

- binding: binds
B6: KL001-07 (antibody, V domains shown)
VH: B1 VH with I51Q, Q98R
VL: B1 VL with R93S, T94R

- binding: binds
B7: KL001-08 (antibody, V domains shown)
VH: B1 VH with S31G, I54A, Q98R
VL: B1 VL with R93S, L95H
notes: In the Biacore assay it was captured by anti-human IgG (Fc), so it carried a human Fc there; also called KL001-8

- binding: binds
B10: KL001-11 (antibody, V domains shown)
VH: B1 VH with Q98R
VL: B1 VL

- binding: binds
B11: KL001-17 (antibody, V domains shown)
VH: B1 VH with Q98R
VL: B1 VL with T26V, R93S, T94R

- binding: binds
B12: KL001-24 (antibody, V domains shown)
VH: B1 VH with I57Q, Q98R
VL: B1 VL with Y31F, R93S, T94R

- binding: binds
B13: KL001-10 (antibody, V domains shown)
VH: B1 VH with Q98R
VL: B1 VL with R93Q

- binding: binds
B17: KL001-23 (antibody, V domains shown)
VH: B1 VH with Q98R, S107V, Y110H
VL: B1 VL with R93S, T94R

- binding: binds
B20: KL001-14 (antibody, V domains shown)
VH: B1 VH with Q98R, G106Q
VL: B1 VL with T26Q, R93S, T94R

- binding: binds
B21: KL001-18 (antibody, V domains shown)
VH: B1 VH with Q98R
VL: B1 VL with P25Q, R93S, L95E

- binding: binds
B23: KL001-12 (antibody, V domains shown)
VH: B1 VH with Q98R
VL: B1 VL with R93S, T94A
